1 compound from ChEMBL document CHEMBL5038592, “Discovery of MK-8153, a Potent and Selective ROMK Inhibitor and Novel Diuretic/Natriuretic” (J Med Chem, 2021) can be followed below.

This data set in a line: Apparent permeability in pig LLC-PK1 cells.

In the case of `COc1nsc(N2CCC3(CCN(C[C@H](O)c4ccc5c(c4C)COC5=O)CC3)C2=O)n1`, the Papp – broadly, the rate of passage across a membrane or cell layer, normalised by area and donor concentration – came out at 36 ×10⁻⁶ cm/s.
